Assay results from the supplement of paper PMC10849652.
The list shows a part of the results.

Amino acid sequences for entries named in this document (tags omitted). A change or cut given only in a name is not applied to a line headed by its entry.
UniProt P62820, whole entry, looked up: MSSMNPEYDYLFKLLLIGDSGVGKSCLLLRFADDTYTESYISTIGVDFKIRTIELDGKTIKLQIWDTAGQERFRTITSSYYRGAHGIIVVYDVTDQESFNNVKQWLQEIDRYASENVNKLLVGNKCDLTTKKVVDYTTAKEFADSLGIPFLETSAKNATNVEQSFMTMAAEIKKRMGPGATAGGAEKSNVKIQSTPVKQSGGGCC
UniProt P61224: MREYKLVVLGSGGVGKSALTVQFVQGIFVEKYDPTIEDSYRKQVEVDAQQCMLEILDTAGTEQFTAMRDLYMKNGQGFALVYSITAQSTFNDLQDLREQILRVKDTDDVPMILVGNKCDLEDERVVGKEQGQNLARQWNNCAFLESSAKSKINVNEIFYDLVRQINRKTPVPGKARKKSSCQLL
UniProt Q96S59, whole entry, looked up: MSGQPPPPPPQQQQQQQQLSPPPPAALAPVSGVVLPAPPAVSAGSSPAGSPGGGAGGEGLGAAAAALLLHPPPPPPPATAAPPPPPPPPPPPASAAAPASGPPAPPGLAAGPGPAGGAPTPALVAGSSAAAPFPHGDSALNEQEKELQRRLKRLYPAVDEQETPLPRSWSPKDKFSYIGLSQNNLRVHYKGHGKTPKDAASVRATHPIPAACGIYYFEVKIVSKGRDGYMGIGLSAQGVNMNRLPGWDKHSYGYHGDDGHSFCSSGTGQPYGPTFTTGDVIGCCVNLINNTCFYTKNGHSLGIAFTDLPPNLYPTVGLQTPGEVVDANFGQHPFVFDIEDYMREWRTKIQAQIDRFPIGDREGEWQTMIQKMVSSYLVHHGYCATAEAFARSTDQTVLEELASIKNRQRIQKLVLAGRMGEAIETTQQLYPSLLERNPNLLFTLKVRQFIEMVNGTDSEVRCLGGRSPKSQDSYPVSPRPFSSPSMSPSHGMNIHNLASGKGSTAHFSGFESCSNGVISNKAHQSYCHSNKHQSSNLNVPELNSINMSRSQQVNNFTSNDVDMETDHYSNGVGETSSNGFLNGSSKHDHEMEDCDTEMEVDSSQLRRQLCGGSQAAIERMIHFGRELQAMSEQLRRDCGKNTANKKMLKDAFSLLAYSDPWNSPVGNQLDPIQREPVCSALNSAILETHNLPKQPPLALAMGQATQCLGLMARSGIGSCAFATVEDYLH
UniProt P47224: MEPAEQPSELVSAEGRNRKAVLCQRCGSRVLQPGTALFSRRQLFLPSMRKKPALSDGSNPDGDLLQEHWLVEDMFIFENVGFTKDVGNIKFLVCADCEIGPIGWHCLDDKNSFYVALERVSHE
UniProt Q96QF0: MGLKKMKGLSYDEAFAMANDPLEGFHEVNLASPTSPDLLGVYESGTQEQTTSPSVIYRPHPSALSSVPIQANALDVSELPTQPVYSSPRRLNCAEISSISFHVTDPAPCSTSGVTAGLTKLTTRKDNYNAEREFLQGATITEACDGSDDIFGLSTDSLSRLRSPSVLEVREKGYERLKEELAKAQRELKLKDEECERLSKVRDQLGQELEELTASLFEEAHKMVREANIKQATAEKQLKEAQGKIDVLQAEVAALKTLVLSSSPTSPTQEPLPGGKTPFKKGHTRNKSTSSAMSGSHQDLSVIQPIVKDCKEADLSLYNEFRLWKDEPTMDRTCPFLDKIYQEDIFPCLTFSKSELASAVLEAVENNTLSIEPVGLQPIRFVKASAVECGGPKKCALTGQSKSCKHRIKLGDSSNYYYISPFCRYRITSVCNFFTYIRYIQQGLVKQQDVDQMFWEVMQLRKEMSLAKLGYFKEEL
UniProt P43487, whole entry, looked up: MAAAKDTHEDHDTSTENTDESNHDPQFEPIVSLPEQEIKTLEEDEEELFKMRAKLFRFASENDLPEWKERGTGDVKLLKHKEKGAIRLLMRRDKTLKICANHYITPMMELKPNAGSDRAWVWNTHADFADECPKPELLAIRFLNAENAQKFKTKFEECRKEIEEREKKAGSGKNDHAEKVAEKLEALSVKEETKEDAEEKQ
UniProt Q15286: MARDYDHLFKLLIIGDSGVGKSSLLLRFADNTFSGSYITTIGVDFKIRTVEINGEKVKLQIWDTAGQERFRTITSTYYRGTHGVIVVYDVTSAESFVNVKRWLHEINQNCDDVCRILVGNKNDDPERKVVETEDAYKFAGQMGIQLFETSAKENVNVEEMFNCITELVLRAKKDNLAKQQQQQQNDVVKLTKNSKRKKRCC
UniProt Q96I25: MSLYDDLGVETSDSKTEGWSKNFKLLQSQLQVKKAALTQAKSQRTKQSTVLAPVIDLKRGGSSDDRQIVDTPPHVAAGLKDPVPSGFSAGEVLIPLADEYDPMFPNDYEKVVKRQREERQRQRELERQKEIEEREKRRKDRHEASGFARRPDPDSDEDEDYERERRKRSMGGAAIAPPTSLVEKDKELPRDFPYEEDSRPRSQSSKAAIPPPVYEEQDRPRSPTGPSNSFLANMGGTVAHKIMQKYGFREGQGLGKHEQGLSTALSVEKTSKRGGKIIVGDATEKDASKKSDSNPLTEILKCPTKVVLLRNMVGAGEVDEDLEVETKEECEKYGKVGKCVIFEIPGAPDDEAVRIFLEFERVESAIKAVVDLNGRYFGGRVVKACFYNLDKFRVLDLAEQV
UniProt P06400: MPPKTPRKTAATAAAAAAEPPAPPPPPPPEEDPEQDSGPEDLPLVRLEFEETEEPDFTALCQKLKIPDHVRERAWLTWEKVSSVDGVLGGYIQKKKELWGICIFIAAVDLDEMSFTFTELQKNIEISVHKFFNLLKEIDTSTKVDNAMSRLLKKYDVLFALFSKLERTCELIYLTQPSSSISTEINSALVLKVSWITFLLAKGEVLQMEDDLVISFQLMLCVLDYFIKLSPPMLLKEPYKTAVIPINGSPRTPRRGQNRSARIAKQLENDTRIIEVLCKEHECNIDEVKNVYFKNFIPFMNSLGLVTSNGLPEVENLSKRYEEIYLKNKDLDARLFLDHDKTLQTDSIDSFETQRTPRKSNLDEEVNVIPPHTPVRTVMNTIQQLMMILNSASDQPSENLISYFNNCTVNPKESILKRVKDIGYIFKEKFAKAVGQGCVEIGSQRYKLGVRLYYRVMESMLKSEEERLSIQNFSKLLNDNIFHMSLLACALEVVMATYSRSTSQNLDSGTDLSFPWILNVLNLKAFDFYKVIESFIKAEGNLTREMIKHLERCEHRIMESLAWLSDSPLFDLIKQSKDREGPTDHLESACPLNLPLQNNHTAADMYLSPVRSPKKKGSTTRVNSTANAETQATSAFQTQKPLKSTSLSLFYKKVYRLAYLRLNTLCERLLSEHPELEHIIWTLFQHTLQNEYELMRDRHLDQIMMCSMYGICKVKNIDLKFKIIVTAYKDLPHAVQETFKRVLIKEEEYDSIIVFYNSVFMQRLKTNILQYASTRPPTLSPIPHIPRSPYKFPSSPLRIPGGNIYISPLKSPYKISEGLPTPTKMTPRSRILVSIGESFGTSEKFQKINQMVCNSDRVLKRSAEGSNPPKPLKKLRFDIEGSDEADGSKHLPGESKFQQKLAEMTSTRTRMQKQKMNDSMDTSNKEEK
UniProt O15315: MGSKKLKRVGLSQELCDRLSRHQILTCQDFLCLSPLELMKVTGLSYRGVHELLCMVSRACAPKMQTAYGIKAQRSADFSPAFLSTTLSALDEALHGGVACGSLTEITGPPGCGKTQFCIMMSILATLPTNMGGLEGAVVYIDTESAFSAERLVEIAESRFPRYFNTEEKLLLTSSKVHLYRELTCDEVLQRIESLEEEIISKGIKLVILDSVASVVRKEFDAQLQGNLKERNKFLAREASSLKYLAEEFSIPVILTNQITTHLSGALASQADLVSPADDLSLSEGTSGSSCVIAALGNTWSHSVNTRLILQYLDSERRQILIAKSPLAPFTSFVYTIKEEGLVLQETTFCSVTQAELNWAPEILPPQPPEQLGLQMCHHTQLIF
UniProt Q9H6Z4: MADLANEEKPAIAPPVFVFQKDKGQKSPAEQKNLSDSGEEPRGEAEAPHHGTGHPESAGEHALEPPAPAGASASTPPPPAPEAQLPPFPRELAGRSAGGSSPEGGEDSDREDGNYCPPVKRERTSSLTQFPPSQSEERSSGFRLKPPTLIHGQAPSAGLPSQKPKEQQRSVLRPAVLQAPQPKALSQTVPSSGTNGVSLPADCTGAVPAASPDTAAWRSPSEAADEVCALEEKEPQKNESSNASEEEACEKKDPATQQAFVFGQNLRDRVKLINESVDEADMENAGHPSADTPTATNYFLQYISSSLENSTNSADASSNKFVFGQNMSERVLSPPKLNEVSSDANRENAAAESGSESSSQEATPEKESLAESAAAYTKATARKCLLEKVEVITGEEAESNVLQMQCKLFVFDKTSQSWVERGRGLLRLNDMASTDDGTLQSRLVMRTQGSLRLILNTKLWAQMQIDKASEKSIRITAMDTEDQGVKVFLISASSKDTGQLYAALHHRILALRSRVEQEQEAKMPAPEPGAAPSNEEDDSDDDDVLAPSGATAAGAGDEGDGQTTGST
UniProt Q53S08: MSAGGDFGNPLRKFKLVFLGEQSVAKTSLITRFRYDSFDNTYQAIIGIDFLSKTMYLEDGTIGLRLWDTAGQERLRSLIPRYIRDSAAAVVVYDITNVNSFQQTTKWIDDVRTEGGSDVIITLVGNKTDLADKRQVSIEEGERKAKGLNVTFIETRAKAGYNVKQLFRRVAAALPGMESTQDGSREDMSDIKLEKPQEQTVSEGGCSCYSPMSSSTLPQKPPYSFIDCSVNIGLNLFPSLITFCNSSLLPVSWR
UniProt Q9P0K7: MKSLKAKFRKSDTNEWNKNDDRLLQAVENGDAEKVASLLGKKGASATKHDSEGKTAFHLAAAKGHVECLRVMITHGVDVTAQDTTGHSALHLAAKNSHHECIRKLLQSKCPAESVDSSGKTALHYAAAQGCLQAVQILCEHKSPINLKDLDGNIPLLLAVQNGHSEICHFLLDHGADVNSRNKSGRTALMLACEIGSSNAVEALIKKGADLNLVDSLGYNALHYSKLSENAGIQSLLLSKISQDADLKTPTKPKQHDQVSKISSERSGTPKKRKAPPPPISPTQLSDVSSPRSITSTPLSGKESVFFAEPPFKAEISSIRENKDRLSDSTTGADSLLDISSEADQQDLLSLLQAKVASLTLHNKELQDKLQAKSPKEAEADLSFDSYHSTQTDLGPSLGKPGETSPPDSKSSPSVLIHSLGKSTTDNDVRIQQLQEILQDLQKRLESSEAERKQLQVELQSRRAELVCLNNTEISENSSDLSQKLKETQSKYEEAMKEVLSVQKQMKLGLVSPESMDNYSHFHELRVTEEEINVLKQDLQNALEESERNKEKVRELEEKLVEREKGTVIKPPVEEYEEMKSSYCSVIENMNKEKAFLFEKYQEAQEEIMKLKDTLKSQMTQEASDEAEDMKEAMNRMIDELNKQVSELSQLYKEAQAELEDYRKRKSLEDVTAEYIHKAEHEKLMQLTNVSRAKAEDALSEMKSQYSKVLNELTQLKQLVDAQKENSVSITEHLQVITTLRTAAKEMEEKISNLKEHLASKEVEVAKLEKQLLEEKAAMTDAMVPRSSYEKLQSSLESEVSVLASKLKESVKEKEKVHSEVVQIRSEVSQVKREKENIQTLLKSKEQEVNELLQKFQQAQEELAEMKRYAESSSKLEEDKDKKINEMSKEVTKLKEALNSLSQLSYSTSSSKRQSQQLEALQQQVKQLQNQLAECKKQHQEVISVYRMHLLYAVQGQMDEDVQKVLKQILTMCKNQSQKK
UniProt P53611: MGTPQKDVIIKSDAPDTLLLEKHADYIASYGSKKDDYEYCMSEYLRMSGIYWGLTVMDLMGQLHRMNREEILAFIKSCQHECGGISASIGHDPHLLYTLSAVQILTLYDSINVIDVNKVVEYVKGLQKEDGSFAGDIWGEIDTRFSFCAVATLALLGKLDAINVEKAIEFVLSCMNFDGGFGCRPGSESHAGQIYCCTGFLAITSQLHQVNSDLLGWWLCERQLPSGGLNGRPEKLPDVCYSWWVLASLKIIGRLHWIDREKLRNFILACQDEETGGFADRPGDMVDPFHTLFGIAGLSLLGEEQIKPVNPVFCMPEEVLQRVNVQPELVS
UniProt P52306: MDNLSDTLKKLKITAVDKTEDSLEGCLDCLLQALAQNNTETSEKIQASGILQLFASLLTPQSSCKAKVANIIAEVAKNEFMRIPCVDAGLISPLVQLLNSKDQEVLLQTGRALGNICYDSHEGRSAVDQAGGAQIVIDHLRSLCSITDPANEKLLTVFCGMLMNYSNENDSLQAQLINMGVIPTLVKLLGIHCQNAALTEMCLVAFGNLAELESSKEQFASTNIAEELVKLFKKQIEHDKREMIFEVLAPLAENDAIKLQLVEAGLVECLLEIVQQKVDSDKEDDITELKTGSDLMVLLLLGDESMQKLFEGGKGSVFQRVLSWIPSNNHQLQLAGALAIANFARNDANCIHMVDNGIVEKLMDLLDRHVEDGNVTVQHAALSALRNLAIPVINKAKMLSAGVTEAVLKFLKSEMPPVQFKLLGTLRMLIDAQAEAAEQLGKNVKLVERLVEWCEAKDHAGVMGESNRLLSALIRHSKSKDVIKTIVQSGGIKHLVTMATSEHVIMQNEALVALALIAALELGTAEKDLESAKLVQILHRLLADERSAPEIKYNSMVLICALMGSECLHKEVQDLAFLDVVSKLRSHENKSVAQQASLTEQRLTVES

Legend:
Test in all cases: log2 fold change, soluble protein after heating vs DMSO (PISA); higher = thermal stabilisation; K562 cells, 10 uM, 30 min; active = over 0.2 and 3.5 SD of the protein, either way, in both replicates (recomputed)
[1] = compound: CN1CCN(CCOc2cc(OC3CCOCC3)c3c(Nc4c(Cl)ccc5c4OCO5)ncnc3c2)CC1 [saracatinib]
In short: (§1)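 Thermal stability values are relative to control samples and come from duplicates. They are expressed as log2 fold changes. For measurement, K562 cells (2×10^6 cells/mL) received 10 μM compound for 30 min, and aliquots were heated for 3 min over 48°C-58°C, pooled, and extracted at 4°C in PBS with 0.5% NP-40. Soluble protein, the supernatant after 21,000xg for 90 min, was quantified by TMTpro 16plex LC-MS/MS with equalised channel sums.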

[2] = compound: CN1CCN(c2nc(C3=C(c4c[nH]c5ccccc45)C(=O)NC3=O)c3ccccc3n2)CC1 [sotrastaurin]
In short: as §1

[3] = compound: CN1CC[C@H](c2c(O)cc(O)c3c(=O)cc(-c4ccccc4Cl)oc23)[C@H](O)C1 [alvocidib]
In short: as §1

[4] = compound: CN1CCc2c(c3ccccc3n2Cc2ccc(C(=O)NO)cc2)C1 [Tubastatin A]
In short: as §1

[5] = compound: CNC(=O)C1=CC=CC=C1NC2=NC(=NC=C2Cl)NC3=C(C=C(C=C3)N4CCOCC4)OC
In short: as §1

[6] = compound: CNC(=O)c1ccc(Nc2ncc(C(F)(F)F)c(NCc3nccnc3N(C)S(C)(=O)=O)n2)cc1 [defactinib]
In short: as §1

[7] = compound: CNCc1ccc(-c2[nH]c3cc(F)cc4c3c2CCNC4=O)cc1 [rucaparib]
In short: as §1

[8] = compound: CNc1nc(-c2ccc3c(N)n[nH]c3c2)cc(N2C[C@@H](C(=O)NC3CCCCC3)CC[C@H]2C)n1
In short: as §1

[9] = compound: COC(=O)N[C@@H](C)CNc1nccc(-c2cn(C(C)C)nc2-c2cc(Cl)cc(NS(C)(=O)=O)c2F)n1 [encorafenib]
In short: as §1

[10] = compound: COC(=O)[C@H](CCSC)NC(=O)C1=C(C=C(C=C1)NC[C@H](CS)N)C2=CC=CC=C2
In short: as §1

Measured: log2 fold change

RAB1A (UniProt P62820)
inactive: [1] 0.045 | [2] 0.032 | [3] 0.01 | [4] -0.028 | [5] -0.017 | [6] 0 | [7] -0.061 | [8] -0.035 | [9] -0.021 | [10] 0.02

RAP1B (UniProt P61224)
inactive: [1] 0.039 | [2] 0.059 | [3] -0.012 | [4] 0.017 | [5] 0.151 | [6] -0.024 | [7] -0.017 | [8] 0.006 | [9] -0.02 | [10] 0.011

RANBP9 (UniProt Q96S59)
inactive: [1] 0.041 | [2] -0.107 | [3] -0.023 | [4] -0.004 | [5] 0.028 | [6] -0.038 | [7] 0.048 | [8] -0.005 | [9] 0.035 | [10] 0.004

RAB5B (UniProt P61020)
inactive: [1] 0.072 | [2] 0.025 | [3] -0.007 | [4] 0.027 | [5] -0.087 | [6] -0.03 | [7] -0.037 | [8] -0.003 | [9] -0.049 | [10] -0.1

RABIF (UniProt P47224)
inactive: [1] 0.058 | [2] -0.015 | [3] -0.056 | [4] -0.049 | [5] 0.045 | [6] 0.044 | [7] 0.093 | [8] -0.001 | [9] -0.069 | [10] -0.017

RAB3IP (UniProt Q96QF0)
inactive: [1] -0.017 | [2] 0.006 | [3] -0.133 | [4] -0.036 | [5] 0.009 | [6] 0.132 | [7] -0.032 | [8] 0.013 | [9] -0.006 | [10] 0.071

5 consecutive entries from above:
RAP1B (UniProt P61224)
inactive: [1] 0.039 | [2] 0.059 | [3] -0.012 | [4] 0.017 | [5] 0.151 | [6] -0.024 | [7] -0.017 | [8] 0.006 | [9] -0.02 | [10] 0.011

RANBP9 (UniProt Q96S59)
inactive: [1] 0.041 | [2] -0.107 | [3] -0.023 | [4] -0.004 | [5] 0.028 | [6] -0.038 | [7] 0.048 | [8] -0.005 | [9] 0.035 | [10] 0.004

RAB5B (UniProt P61020)
inactive: [1] 0.072 | [2] 0.025 | [3] -0.007 | [4] 0.027 | [5] -0.087 | [6] -0.03 | [7] -0.037 | [8] -0.003 | [9] -0.049 | [10] -0.1

RABIF (UniProt P47224)
inactive: [1] 0.058 | [2] -0.015 | [3] -0.056 | [4] -0.049 | [5] 0.045 | [6] 0.044 | [7] 0.093 | [8] -0.001 | [9] -0.069 | [10] -0.017

RAB3IP (UniProt Q96QF0)
inactive: [1] -0.017 | [2] 0.006 | [3] -0.133 | [4] -0.036 | [5] 0.009 | [6] 0.132 | [7] -0.032 | [8] 0.013 | [9] -0.006 | [10] 0.071

Following part

RABL3 (UniProt Q5HYI8)
inactive: [1] -0.044 | [2] 0.01 | [3] -0.04 | [4] -0.013 | [5] 0.036 | [6] -0.034 | [7] -0.046 | [8] -0.02 | [9] 0.009 | [10] -0.023

RANBP1 (UniProt P43487)
inactive: [1] 0.024 | [2] 0.01 | [3] -0.066 | [4] 0.004 | [5] 0.022 | [6] 0.005 | [7] -0.064 | [8] -0.011 | [9] 0.054 | [10] 0.001

RAB3GAP1 (UniProt Q15042)
inactive: [1] 0.088 | [2] -0.186 | [3] 0.003 | [4] 0.039 | [5] -0.025 | [6] -0.035 | [7] 0.207 | [8] -0.007 | [9] 0.179 | [10] -0.078

RAB35 (UniProt Q15286)
inactive: [1] 0.061 | [2] 0.058 | [3] 0.012 | [4] -0.017 | [5] 0.032 | [6] 0.017 | [7] -0.015 | [8] -0.007 | [9] -0.019 | [10] 0.052

RALGAPB (UniProt Q86X10)
inactive: [1] -0.077 | [2] 0.002 | [3] 0.009 | [4] 0.146 | [7] 0.012 | [8] 0.194 | [9] -0.095

RBM17 (UniProt Q96I25)
inactive: [1] 0.005 | [2] -0.039 | [4] 0.065 | [5] -0.03 | [6] -0.174 | [7] 0.055 | [8] -0.025 | [9] 0.05 | [10] -0.044

RBIS (UniProt Q8N0T1)
inactive: [1] 0.054 | [2] -0.002 | [4] 0.037 | [5] -0.026 | [6] 0.058 | [7] -0.048 | [8] -0.037 | [9] 0.022 | [10] 0.03

RABGGTA (UniProt Q92696)
inactive: [1] 0.013 | [2] 0.102 | [4] -0.044 | [5] -0.034 | [6] -0.034 | [7] -0.015 | [8] 0.001 | [9] 0.004 | [10] -0.024

RB1 (UniProt P06400)
active: [3] -0.885
inactive: [1] 0.026 | [2] -0.038 | [4] 0.061 | [5] 0.026 | [6] -0.176 | [7] -0.195 | [8] 0.016 | [9] 0.006 | [10] 0.019

RASA2 (UniProt Q15283)
inactive: [1] -0.022 | [2] -0.03 | [3] 0.253 | [6] 0.1 | [7] -0.029 | [8] 0.122 | [9] -0.241 | [10] 0.105

RAD51B (UniProt O15315)
inactive: [1] 0.176 | [2] 0.088 | [3] -0.133 | [4] 0.018 | [5] -0.039 | [7] 0.047 | [8] -0.005 | [9] -0.197

RANBP3 (UniProt Q9H6Z4)
inactive: [1] 0.035 | [2] 0.002 | [3] -0.045 | [4] -0.006 | [5] -0.01 | [6] -0.013 | [7] -0.027 | [8] -0.027 | [9] -0.002 | [10] 0.034

RABGEF1 isoform 3 (UniProt Q9UJ41)
inactive: [1] -0.031 | [2] 0.007 | [3] -0.003 | [4] 0.08 | [5] 0.017 | [6] -0.045 | [7] -0.04 | [8] 0.031 | [9] -0.046 | [10] 0.056

RAB6D (UniProt Q53S08)
inactive: [1] -0.012 | [2] 0.066 | [3] 0.065 | [4] 0.121 | [5] -0.034 | [6] -0.034 | [7] -0.074 | [8] -0.061 | [9] 0.054 | [10] -0.001

RAI14 isoform 2 (UniProt Q9P0K7)
inactive: [1] -0.191 | [2] -0.081 | [3] -0.01 | [4] -0.009 | [5] -0.005 | [6] -0.223 | [8] -0.06 | [10] -0.233

RAD23B (UniProt P54727)
inactive: [1] -0.007 | [2] 0.016 | [3] 0.041 | [4] -0.017 | [5] -0.032 | [6] 0.001 | [7] -0.057 | [8] -0.038 | [9] -0.022 | [10] 0.033

RAB7A (UniProt P51149)
inactive: [1] 0.072 | [2] 0.038 | [3] 0.002 | [4] -0.024 | [5] 0.083 | [6] 0.01 | [7] -0.021 | [8] -0.006 | [9] -0.037 | [10] 0.037

RABGGTB (UniProt P53611)
inactive: [1] 0.046 | [2] 0.134 | [3] -0.073 | [4] 0.051 | [5] -0.063 | [6] -0.081 | [7] 0 | [8] -0.04 | [9] -0.01 | [10] 0.073

RAP1GDS1 isoform 5 (UniProt P52306)
inactive: [1] 0.004 | [2] -0.077 | [4] -0.01 | [5] 0.006 | [6] -0.017 | [7] -0.006 | [8] -0.024 | [9] 0.176 | [10] 0.139
